# According to paper PMC11514473, “The transition state for coupled folding and binding of a disordered DNA binding domain resembles the unbound state” (Nucleic Acids Research, 2024):
# Residue numbers refer to the chain shown, from its start. The exact form of at least one protein or probe is not confirmed. For some assays here: Weaker means in comparison with the reference protein, sequence or condition of that experiment. At least one verdict was read from the data and is not stated in words by the source. Where a protein sequence is shown, tags need not be part of it.
# What was measured:
# [1] = test system: T1, 285bZIP R302G C300S,C310S,C337S,R302G (human); experiment: stopped-flow fluorescence (dissociation); details: koff 960 +/- 20 s-1, kon and KD not determined, 10 mM Mg2+; 10 mM MES pH 6.5, 150 mM NaCl, 10 mM MgCl2, 0.05% Tween-20, 25 C; recombinant protein; residues 285-339; protein details: extra N-terminal Gly; label: 5' Alexa Fluor 488; folded or branched DNA
# T1 sequence (looked up): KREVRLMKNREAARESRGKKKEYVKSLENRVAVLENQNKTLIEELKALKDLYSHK
# [2] = test system: T2, CREB 285bZIP wild type (pseudo-WT, Cys to Ser) C300S,C310S,C337S (human); experiment: competition with a labelled probe; details: unlabelled competitor 0.25-4 uM displaces N1, 10 mM Mg2+; 10 mM MES pH 6.5, 150 mM NaCl, 10 mM MgCl2, 0.05% Tween-20, 25 C; recombinant protein; residues 285-339
# T2 sequence (looked up): T1 sequence (looked up) with G18R
Sequence,binding result [1],binding result [2]
CCTGACGTCAGCCCCCTGACGTCAGG [AlexaFluor488-CREh],binds more weakly,
CCTGACGTCATCCG (double strand) [14 bp competitor CRE DNA],,binds
